According to article PMC5339802 (2017):
No constants are given. Whether binding was seen depends on the method and setting. In cells and extracts the contact can be indirect. Some entries that bind do so weakly or less than the wild type.

Amino acid sequences for entries named in this document (tags omitted).
UniProt Q9Y4I1: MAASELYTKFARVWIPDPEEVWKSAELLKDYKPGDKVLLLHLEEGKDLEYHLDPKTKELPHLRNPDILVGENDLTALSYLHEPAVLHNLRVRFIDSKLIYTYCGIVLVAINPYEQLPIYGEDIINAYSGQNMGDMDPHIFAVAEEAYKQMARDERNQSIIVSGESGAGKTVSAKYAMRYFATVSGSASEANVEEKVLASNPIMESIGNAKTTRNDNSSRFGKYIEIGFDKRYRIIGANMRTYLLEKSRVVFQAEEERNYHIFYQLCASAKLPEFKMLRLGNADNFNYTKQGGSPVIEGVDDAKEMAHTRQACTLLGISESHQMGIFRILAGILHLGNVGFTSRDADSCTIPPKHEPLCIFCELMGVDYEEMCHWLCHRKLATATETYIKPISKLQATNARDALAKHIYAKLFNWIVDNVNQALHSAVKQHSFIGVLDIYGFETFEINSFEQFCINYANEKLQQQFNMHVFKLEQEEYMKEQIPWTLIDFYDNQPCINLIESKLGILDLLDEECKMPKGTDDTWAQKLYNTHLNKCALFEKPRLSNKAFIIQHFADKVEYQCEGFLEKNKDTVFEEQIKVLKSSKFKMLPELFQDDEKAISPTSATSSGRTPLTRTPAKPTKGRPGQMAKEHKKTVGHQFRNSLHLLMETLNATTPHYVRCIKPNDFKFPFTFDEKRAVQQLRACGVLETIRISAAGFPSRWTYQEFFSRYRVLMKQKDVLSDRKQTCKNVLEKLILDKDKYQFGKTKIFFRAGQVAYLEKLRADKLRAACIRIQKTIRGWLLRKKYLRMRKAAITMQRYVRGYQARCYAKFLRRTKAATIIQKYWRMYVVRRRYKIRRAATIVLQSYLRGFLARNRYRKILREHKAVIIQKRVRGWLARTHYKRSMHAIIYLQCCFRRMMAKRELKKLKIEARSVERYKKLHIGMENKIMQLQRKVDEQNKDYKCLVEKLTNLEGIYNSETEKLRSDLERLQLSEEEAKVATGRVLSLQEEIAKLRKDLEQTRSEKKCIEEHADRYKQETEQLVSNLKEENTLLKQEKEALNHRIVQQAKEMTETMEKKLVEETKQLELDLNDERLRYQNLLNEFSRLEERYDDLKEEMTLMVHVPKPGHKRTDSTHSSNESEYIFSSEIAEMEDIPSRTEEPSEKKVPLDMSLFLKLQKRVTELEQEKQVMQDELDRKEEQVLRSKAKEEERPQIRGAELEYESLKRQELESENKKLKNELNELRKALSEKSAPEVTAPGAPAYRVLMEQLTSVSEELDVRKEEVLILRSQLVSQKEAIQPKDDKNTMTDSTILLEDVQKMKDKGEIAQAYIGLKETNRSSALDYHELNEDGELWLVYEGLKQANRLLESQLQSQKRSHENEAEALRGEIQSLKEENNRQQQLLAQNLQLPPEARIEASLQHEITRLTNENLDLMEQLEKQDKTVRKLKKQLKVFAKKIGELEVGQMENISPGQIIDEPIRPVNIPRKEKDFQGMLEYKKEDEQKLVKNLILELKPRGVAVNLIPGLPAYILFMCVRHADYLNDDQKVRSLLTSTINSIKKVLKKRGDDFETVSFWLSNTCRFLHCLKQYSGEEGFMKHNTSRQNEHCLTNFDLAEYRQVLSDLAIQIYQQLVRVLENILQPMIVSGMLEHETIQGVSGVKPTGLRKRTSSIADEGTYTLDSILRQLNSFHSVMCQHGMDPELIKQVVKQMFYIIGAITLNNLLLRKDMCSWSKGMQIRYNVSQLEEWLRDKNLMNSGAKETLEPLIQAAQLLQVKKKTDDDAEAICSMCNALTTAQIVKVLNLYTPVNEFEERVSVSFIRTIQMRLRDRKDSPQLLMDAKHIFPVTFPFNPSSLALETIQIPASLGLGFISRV
UniProt Q68CZ1: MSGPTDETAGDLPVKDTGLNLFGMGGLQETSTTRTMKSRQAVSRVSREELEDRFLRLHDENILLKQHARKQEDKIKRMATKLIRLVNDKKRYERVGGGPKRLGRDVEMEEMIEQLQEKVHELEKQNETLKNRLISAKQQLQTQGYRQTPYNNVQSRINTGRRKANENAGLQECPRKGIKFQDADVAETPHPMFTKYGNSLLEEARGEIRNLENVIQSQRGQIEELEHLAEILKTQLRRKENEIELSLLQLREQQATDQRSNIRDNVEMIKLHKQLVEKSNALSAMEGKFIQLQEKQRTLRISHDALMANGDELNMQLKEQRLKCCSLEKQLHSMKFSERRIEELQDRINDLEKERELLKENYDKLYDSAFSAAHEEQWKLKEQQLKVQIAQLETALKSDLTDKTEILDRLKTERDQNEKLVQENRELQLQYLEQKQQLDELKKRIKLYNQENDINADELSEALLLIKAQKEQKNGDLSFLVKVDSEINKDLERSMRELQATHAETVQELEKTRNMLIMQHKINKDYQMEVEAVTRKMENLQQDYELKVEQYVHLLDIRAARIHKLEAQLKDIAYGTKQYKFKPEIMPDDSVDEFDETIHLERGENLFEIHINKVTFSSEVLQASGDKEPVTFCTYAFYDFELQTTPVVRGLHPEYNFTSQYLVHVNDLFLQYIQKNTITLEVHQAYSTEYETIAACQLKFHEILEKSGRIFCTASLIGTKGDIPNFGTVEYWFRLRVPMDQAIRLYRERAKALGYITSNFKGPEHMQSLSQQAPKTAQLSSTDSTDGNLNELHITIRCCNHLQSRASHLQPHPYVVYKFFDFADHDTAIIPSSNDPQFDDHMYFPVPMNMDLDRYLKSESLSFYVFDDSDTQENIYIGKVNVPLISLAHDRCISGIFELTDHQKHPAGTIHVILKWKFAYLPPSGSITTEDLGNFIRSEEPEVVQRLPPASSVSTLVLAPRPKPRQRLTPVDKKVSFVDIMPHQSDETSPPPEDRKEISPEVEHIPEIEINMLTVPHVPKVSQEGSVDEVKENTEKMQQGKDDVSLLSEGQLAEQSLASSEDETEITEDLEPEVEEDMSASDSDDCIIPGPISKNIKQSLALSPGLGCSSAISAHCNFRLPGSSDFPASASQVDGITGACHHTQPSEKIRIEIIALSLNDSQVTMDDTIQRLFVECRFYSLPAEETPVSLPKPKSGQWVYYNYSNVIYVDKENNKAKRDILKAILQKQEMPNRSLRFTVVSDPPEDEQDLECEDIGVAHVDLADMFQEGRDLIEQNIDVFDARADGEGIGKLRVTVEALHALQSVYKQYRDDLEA

Molecular target: Myosin Va (MyoVa), endogenous (human (endogenous in hTERT RPE-1)) (UniProt Q9Y4I1)
Assay: proximity ligation; in situ PLA (Duolink) in fixed, serum-starved ciliated hTERT RPE-1 cells with rabbit anti-MyoVa and goat anti-RPGRIP1L; control without primary antibodies

Substance: RPGRIP1L, endogenous (from UniProt Q68CZ1 1-1315)
- binding: binds
